Earlier results as cited in patent US11213481B2, “Tumescent drug delivery” (priority 2004, dated 2022).

Conditions: tumescent lidocaine; cited from earlier work

## CCN(CC)CC(=O)Nc1c(C)cccc1C [Lidocaine]
  time required for systemic absorption: ≥ 24 h
